The assay concerns the target insulin-like growth factor 2 receptor (IGF2R) (mouse (endogenous in heart grafts)) (UniProt Q07113). In words: affinity purification with mass spectrometry.

The chains behind the UniProt entries cited, without tags or fusion partners. Residues count along the entry.
UniProt Q07113, residues 36-2483: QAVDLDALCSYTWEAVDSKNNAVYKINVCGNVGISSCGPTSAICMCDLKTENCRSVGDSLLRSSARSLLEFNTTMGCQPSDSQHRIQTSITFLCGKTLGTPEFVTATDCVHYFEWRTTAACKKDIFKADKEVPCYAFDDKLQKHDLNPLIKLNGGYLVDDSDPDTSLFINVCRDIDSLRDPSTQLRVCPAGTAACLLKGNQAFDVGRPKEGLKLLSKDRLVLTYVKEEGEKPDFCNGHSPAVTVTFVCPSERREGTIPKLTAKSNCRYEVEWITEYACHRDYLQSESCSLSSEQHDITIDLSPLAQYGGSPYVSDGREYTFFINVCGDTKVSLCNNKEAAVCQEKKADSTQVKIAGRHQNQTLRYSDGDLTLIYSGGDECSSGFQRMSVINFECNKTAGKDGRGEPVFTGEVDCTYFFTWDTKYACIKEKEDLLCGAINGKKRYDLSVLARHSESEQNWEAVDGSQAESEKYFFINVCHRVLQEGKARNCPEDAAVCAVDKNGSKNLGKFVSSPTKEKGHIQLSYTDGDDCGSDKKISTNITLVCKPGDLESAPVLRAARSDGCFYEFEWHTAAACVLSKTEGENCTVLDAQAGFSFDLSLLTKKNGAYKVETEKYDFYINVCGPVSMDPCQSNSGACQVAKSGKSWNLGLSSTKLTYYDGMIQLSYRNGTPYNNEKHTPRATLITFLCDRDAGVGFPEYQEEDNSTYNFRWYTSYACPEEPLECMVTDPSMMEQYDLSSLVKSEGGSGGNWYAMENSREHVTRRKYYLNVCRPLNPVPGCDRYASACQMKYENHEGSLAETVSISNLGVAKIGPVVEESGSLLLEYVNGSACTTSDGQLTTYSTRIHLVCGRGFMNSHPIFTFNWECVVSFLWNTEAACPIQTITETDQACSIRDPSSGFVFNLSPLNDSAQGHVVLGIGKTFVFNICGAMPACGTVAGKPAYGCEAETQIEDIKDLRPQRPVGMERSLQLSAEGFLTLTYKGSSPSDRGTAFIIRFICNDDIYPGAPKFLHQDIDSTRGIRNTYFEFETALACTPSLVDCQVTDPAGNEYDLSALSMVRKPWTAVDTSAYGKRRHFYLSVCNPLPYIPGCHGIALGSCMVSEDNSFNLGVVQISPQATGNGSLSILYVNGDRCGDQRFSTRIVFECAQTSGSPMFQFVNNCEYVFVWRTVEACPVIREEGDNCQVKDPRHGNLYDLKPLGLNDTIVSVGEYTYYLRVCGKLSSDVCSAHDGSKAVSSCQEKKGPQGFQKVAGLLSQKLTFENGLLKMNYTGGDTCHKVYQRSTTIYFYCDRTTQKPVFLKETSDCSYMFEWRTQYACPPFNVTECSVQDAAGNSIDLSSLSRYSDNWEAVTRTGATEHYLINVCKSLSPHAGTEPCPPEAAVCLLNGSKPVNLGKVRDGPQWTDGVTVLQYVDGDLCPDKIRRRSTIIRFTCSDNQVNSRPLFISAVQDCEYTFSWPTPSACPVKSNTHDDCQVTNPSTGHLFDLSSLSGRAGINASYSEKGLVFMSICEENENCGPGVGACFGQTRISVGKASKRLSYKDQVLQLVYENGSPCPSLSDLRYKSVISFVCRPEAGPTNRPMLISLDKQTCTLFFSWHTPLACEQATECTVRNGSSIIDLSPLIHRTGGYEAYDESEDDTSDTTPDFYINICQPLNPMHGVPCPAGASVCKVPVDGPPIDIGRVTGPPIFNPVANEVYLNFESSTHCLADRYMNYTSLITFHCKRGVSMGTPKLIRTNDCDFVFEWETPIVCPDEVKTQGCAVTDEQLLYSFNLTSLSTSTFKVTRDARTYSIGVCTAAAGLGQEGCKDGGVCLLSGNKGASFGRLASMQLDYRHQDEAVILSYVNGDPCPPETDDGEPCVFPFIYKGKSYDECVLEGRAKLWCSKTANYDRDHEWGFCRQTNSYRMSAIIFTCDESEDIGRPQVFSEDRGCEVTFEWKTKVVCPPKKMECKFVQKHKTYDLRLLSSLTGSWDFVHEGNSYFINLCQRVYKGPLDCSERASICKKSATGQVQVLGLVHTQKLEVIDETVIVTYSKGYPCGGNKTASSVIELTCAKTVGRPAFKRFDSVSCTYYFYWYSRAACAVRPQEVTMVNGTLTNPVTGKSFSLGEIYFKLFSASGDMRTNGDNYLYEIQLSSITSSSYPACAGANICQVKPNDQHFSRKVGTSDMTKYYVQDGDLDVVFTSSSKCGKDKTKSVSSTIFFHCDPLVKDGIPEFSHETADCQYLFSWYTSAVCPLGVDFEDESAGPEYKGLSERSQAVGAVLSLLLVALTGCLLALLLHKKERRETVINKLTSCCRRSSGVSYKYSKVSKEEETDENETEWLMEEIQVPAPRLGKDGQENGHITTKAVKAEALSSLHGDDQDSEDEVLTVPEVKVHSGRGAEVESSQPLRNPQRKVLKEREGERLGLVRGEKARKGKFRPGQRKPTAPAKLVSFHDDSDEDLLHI
UniProt O35744, residues 22-398: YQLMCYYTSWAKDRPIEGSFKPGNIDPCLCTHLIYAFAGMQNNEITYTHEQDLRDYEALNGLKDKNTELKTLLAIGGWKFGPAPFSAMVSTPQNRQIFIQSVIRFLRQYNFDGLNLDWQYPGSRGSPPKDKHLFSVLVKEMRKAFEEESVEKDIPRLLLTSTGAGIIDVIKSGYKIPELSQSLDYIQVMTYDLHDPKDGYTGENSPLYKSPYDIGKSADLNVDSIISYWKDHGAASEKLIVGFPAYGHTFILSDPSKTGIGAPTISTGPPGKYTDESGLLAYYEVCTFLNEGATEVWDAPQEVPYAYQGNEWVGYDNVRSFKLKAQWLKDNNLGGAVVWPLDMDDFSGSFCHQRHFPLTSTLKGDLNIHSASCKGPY

No constants are given. Whether binding was seen depends on the method and setting. In cells and extracts the contact can be indirect. A yes stands for co-enrichment or nearness to the bait. Other partners may have been found.

The source of these data is article doi:10.1101/2023.04.21.537835.

In the case of “Chil3 (Chi3l3) (from UniProt O35744 22-398)”, the binding result is “binds”.

B1: Ngp (protein, UniProt O08692 22-167)
chain: LRQLRYEEIVDRAIEAYNQGRQGRPLFRLLSATPPSSQNPATNIPLQFRIKETECTSTQERQPKDCDFLEDGEERNCTGKFFRRRQSTSLTLTCDRDCSREDTQETSFNDKQDVSEKEKFEDVPPHIRNIYEDAKYDIIGNILKNF
Regarding B1, the binding entry is “binds”.

B2: S100a9 (protein, UniProt P31725 1-113)
chain: MANKAPSQMERSITTIIDTFHQYSRKEGHPDTLSKKEFRQMVEAQLATFMKKEKRNEALINDIMEDLDTNQDNQLSFEECMMLMAKLIFACHEKLHENNPRGHGHSHGKGCGK
Consider B2, for which the binding entry is “binds”.

B3: Ltf (protein, UniProt P08071 20-707)
chain: KATTVQWCAVSNSEEEKCLRWQNEMRKVGGPPLSCVKKSSTRQCIQAIVTNRADAMTLDGGTMFDAGKPPYKLRPVAAEVYGTKEQPRTHYYAVAVVKNSSNFHLNQLQGLRSCHTGIGRSAGWKIPIGTLRPYLNWNGPPASLEEAVSKFFSKSCVPGAQKDRFPNLCSSCAGTGANKCASSPEEPYSGYAGALRCLRDNAGDVAFTRGSTVFEELPNKAERDQYKLLCPDNTWKPVTEYKECHLAQVPSHAVVSRSTNDKEEAIWELLRQSQEKFGKKQASGFQLFASPSGQKDLLFKESAIGFVRVPQKVDVGLYLTFSYTTSIQNLNKKQQDVIASKARVTWCAVGSEEKRKCDQWNRASRGRVTCISFPTTEDCIVAIMKGDADAMSLDGGYIYTAGKCGLVPVLAENQKSSKSNGLDCVNRPVEGYLAVAAVRREDAGFTWSSLRGKKSCHTAVDRTAGWNIPMGLLANQTRSCKFNEFFSQSCAPGADPKSNLCALCIGDEKGENKCAPNSKERYQGYTGALRCLAEKAGNVAFLKDSTVLQNTDGKNTEEWARNLKLKDFELLCLDDTRKPVTEAKNCHLAIAPNHAVVSRTDKVEVLQQVLLDQQVQFGRNGQRCPGEFCLFQSKTKNLLFNDNTECLAKIPGKTTSEKYLGKEYVIATERLKQCSSSPLLEACAFLTQ
Take B3: the binding result is “binds”.
